Data from PMC6953022.
Results are given in words; binding and its absence hold for the method and conditions named. In cells and extracts the contact can be indirect. Some results given as binding are weak or reduced against the parent protein; the word gives no strength.

Sequences of proteins named here, by UniProt entry; tags and fusion partners are left off.
UniProt P32240: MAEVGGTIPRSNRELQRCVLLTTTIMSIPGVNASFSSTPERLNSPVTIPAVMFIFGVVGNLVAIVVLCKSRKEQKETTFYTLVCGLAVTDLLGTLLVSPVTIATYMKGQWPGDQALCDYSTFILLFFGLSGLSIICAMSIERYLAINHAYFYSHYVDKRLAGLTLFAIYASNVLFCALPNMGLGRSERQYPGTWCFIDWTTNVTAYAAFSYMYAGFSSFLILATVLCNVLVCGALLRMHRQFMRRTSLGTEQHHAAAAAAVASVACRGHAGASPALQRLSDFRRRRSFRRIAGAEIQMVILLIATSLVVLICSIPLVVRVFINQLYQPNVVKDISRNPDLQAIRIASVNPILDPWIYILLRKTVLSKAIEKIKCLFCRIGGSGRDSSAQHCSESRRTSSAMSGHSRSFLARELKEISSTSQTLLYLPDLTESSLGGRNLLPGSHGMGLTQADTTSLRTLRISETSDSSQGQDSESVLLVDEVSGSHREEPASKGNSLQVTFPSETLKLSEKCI
UniProt Q99MK8: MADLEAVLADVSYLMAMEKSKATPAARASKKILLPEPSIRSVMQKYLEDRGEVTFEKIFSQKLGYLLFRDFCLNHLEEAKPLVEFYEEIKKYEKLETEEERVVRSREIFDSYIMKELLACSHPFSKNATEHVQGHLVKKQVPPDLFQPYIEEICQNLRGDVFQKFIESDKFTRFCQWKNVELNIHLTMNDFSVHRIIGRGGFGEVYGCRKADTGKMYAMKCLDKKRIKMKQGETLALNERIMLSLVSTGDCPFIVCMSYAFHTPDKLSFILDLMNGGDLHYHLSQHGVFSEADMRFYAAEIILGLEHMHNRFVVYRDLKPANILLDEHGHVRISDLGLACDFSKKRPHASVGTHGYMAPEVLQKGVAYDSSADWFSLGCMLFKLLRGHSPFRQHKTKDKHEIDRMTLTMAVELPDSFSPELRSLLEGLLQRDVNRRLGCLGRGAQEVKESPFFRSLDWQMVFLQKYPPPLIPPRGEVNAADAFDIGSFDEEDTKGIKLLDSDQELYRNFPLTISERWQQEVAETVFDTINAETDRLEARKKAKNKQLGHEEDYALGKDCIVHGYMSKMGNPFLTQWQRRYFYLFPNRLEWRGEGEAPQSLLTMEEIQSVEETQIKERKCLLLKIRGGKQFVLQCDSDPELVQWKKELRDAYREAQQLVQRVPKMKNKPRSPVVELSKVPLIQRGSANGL

Columns and labels:
[1] = molecular target: PGE2 receptor EP4 (mouse (endogenous in peritoneal macrophages and Raw264.7)) (UniProt P32240); test: co-IP; endogenous proteins of Raw264.7 cells: M0 (not induced), M1 (TNF-alpha and IFN-gamma, 24 h) and M2 (IL-4, 24 h); standard protocol of ref. 16; which protein was precipitated is not told
[2] = molecular target: PGE2 receptor EP4 (mouse (endogenous in peritoneal macrophages and Raw264.7)) (UniProt P32240); test: co-IP; endogenous proteins of peritoneal macrophages (PMs) of normal and CIA mice; standard protocol of ref. 16; which protein was precipitated is not told

- binding [1]: binds
- binding [2]: binds
Sequence: G protein-coupled receptor kinase 2 (from UniProt Q99MK8 1-689) (enzyme)
